These results are taken from article PMC4414571, “Peptides of Presenilin-1 Bind the Amyloid Precursor Protein Ectodomain and Offer a Novel and Specific Therapeutic Approach to Reduce ß-Amyloid in Alzheimer’s Disease” (PLoS ONE, 2015).

For this test, the target named is T1, biotinylated scrambled P1 (SP1).
T1 sequence (peptide, biotin at the NH2-terminus): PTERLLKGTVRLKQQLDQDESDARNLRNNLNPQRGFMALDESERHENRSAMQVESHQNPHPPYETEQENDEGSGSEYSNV
The test is described as follows: BLI; Octet RED96; biotinylated peptides loaded on streptavidin biosensors, quenched with biocytin; purified APPs (0-200 nM) or control IgG in solution; Kinetics Buffer (1X PBS, 0.002% Tween-20, 0.01% BSA), 30°C; global fit to a 1:1 model; KD = koff/kon; both purified.

No constants are given. Whether binding was seen depends on the method and setting.

Turning to “soluble APP (APPs), purified ectodomain of human APP 695 (domain or fragment)”, the binding entry is “no binding (tested: 3.13–200 nM)”.
